# In all, about 360,000 compounds went through this assay and about 1,700 (0.47%) were called active. This list was built around the results that the source calls inconclusive (neither active nor inactive); the mix of calls is not that of the screen. Calls follow the shape of the dose curve; as a rule, active = well fitted inhibition curve with a large enough effect; inconclusive = small, poorly fitted or top-dose-only effect; inactive = no such curve, though single readings can be large or run the other way. Where the call is inconclusive, the potency comes from a doubtful curve fit.
# Protein sequences, listed by entry. Tags and fused reporters are not part of them.
# UniProt Q14191, whole entry, looked up: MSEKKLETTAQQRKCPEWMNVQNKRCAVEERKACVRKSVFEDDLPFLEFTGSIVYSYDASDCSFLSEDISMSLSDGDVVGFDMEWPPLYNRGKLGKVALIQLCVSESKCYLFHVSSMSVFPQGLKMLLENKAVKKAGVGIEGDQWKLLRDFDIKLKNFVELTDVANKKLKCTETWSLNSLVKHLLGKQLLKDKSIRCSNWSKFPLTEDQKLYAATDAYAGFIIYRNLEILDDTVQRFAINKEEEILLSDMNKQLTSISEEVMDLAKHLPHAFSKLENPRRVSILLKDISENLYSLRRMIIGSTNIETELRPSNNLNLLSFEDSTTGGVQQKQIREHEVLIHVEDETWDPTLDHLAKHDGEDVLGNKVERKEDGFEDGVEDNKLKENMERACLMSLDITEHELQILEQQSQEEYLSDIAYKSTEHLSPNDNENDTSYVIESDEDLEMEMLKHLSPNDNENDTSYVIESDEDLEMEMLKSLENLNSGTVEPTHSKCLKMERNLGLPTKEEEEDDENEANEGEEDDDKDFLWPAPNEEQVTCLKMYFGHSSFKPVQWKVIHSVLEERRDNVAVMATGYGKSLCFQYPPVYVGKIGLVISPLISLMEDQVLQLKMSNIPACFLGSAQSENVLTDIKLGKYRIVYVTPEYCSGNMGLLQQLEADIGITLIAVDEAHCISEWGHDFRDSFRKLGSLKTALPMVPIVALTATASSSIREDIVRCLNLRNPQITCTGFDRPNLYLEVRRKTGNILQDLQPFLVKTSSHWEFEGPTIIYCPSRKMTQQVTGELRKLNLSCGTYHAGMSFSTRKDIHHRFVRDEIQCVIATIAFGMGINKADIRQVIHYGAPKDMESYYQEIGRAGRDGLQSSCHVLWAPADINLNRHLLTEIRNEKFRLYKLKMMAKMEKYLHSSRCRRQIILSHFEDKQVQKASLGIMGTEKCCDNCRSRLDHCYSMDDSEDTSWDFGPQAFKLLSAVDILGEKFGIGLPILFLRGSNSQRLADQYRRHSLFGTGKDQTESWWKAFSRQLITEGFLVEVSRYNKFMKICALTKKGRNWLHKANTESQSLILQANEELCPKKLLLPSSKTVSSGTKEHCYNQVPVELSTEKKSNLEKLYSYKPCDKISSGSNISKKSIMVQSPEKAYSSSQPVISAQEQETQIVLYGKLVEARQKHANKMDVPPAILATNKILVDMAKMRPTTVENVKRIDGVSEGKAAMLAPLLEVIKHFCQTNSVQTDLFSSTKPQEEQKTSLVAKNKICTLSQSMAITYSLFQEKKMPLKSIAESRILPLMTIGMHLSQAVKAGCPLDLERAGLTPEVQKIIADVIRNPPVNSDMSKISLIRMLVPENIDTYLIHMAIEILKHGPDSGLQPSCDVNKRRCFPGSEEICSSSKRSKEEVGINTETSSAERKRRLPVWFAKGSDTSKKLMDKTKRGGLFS
# Target: Bifunctional 3'-5' exonuclease/ATP-dependent helicase WRN (Homo sapiens) (UniProt Q14191)
# Assay: qHTS for Inhibitors of WRN Helicase; also: nearly all actives have a fitted effect of over 55% in size
# Settings: WRN helicase unwinding, fluorescent forked duplex, kinetic; activity change, negative = inhibition: at 114 µM (top of the series) unless noted
# Outline: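 WRN at 20 nM final preincubated with compound 15 min at room temperature; reaction started with 100 nM fluorophore/quencher forked duplex oligonucleotide and 2 mM ATP final. Unwinding followed kinetically by red fluorescence (ex 525, em 598 nm).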
# % is scaled to controls: 0 for no effect and ±100 for the full control effect; potency is read from the fitted curve at half-maximal effect.
SMILES,Potency,"activity change, negative = inhibition"
CCOC(=O)c1cc(-c2ccccc2)sc1NC(=O)c1ccc(OC)c(OC)c1,"inconclusive: 56.2 µM [inhibitor, partial curve]",
Cc1cccn2c(=O)nc(SCC(=O)NCc3ccccc3)nc12,,inactive: 7.33%
CCN1/C(=C/c2ccc3cccc(C)c3[n+]2CC)Sc2ccccc21,"inconclusive: 56.2 µM [inhibitor, partial curve]",
Nc1nc(SCC(=O)Nc2ccc(OC(F)(F)F)cc2)[nH]c(=O)c1NC(=O)c1ccc(Br)o1,,inactive: -28.2%
COC(=O)CCCC1=CC2=CC(=O)C(C)(OC(=O)c3cccs3)C(=O)C2=CN1CCc1c[nH]c2ccccc12 (stereo not drawn),,inactive: -4.44% [at 57.1 µM]
Cc1cccc(N2CC(C(=O)Nc3nnc(SCCN4CCOCC4)s3)CC2=O)c1 (stereo not drawn),"inconclusive: 20 µM [inhibitor, full curve, poor fit]",
Cc1cc(C)c(NC(=O)c2cccc3c2C(=O)N(C2CCCCC2)C3)c(C)c1,,inactive: -1.47%
COc1cc(/C=C(\C#N)c2nc3ccc(C)cc3[nH]2)cc([N+](=O)[O-])c1O,"inconclusive: 23.8 µM [inhibitor, partial curve]",
Cc1nc(-c2ccncc2)sc1C(=O)Nc1ccc(Cl)cc1,,inactive: -15.5%
CCn1cc(C=C2C(=O)c3ccccc3C2=O)c2ccccc21,"inconclusive: 100 µM [inhibitor, single point]",
COc1cc(/C=C2/C(=N)N3C(=NC2=O)SN=C3S(C)(=O)=O)ccc1OS(=O)(=O)c1ccc(C)cc1,"inconclusive: 6.7 µM [inhibitor, single point]",
COc1cc(NS(=O)(=O)c2ccc(C)cc2)c2c(c1N)C(=O)c1ccccc1C2=O,"inconclusive: 3.16 µM [inhibitor, full curve, poor fit]",
CCOc1ccc(C2C(C#N)=C(N)SC(N)=C2C#N)cc1OCC,,inactive: -10.8%
COc1cc(NC(=O)CN2CCN(Cc3ccc4c(c3)OCO4)CC2)cc(OC)c1,"inconclusive: 14.1 µM [inhibitor, full curve]",
CN(C)CCCN1C(=O)c2cccc3c([N+](=O)[O-])ccc(c23)C1=O,,inactive: -18.8%
Cc1ccc2nc(N3C(=O)C(O)=C(C(=O)c4cc5ccccc5o4)C3c3cccs3)sc2c1 (stereo not drawn),"inconclusive: 28.2 µM [inhibitor, full curve]",
CCC(C)c1nc2ccsc2c(N2CCOC2=O)c1-c1ccccc1 (stereo not drawn),,inactive: -6.13%
CCOC(=O)C1CCN(c2nc3ccccc3n2CC(=O)c2ccccc2)CC1,,inactive: -5.95%
N#Cc1c(-c2ccco2)nc(SCC(=O)Nc2cccc(Cl)c2)[nH]c1=O,"inconclusive: 44.7 µM [inhibitor, partial curve]",
Cc1cc(C)n(-c2ccc(Oc3ccccc3)c(S(=O)(=O)O)c2)n1,"inconclusive: 35.5 µM [inhibitor, single point]",
O=C(O)c1cc(N/N=C/c2ccc(N3CCOCC3)cc2)ccc1Cl,"inconclusive: 20 µM [inhibitor, full curve]",
CN1CCN(C(=O)c2sc(=S)n(-c3ccccc3)c2N)CC1,"inconclusive: 79.4 µM [inhibitor, partial curve]",
N#CCC(=O)Nc1ccc(C(=O)OCC(=O)c2ccc3c(c2)NC(=O)CO3)cc1,"inconclusive: 44.7 µM [inhibitor, partial curve]",

SMILES,Potency,"activity change, negative = inhibition"
CC1=C(C#N)C(NC(=O)c2ccc(Cl)cc2)(C(F)(F)F)C(=O)N1 (stereo not drawn),"inconclusive: 28.2 µM [inhibitor, single point]",
CN(C)CCNc1ncnc2c1ncn2[C@H]1CN(Cc2ccc(-c3ccccc3)cc2)C[C@@H](CO)O1,,inactive: 29.7%
CC(=O)Nc1ccc(C=NNc2ccc([N+](=O)[O-])cc2S(=O)(=O)Nc2ccccc2C(=O)O)cc1,,inactive: -29.7%
O=C1CC(NS(=O)(=O)c2ccc([N+](=O)[O-])cc2)CN1c1ccc2c(c1)OCCO2 (stereo not drawn),,inactive: -1.59%
O=C(C1COc2ccccc2O1)N1CCc2ccccc21 (stereo not drawn),"inconclusive: 56.2 µM [inhibitor, partial curve]",
CCOC(=O)c1c(NC(=O)Cn2cnc([N+](=O)[O-])n2)sc2c1CCCC2,,inactive: -25.9% [at 57.1 µM]
O=C(O)CCCn1cc(NC(=O)c2cc(F)c(F)cc2Cl)cn1,,inactive: 0.626% [at 57.1 µM]
NS(=O)(=O)c1ccc(-c2ccc(/C=C3\SC(=O)NC3=O)o2)cc1,"inconclusive: 79.4 µM [inhibitor, single point]",
OCCN1CCN(CC(O)COc2ccc3ccccc3c2)CC1 (stereo not drawn),"inconclusive: 3.55 µM [inhibitor, full curve, poor fit]",
COc1ccc(-c2nn(-c3ccccc3)cc2/C=C2/SC(=S)N(CCCC(=O)O)C2=O)c(C)c1,"inconclusive: 35.5 µM [inhibitor, single point]",
CC(=O)NC(=S)Nc1ccc(NC(=O)c2cccnc2Cl)cc1,"inconclusive: 3.98 µM [inhibitor, full curve, poor fit]",
Cc1cccc(/C=C/C(=O)c2cc(Br)ccc(=O)c2O)c1,"inconclusive: 11.2 µM [inhibitor, partial curve, poor fit]",
CN1CCN(C2=C(Cl)C(=O)c3ccccc3C2=O)CC1,"inconclusive: 35.5 µM [inhibitor, full curve]",
COc1ccc(C(C[N+](=O)[O-])C2(c3ccc(OC)c(OC)c3)C(=O)c3ccccc3C2=O)cc1 (stereo not drawn),"inconclusive: 56.2 µM [inhibitor, partial curve]",
O=C1c2ccccc2-c2onc3ccc(Oc4ccccc4)c1c23,"inconclusive: 44.7 µM [inhibitor, partial curve]",
Cc1ccc(C(=O)CSc2ncnc3sc4c(c23)CCC(C)C4)cc1 (stereo not drawn),"inconclusive: 44.7 µM [inhibitor, partial curve]",
O=C(CNc1cccc(Cl)c1)NNC(=S)NCc1ccccc1,"inconclusive: 39.8 µM [inhibitor, single point]",
Cc1cc(=O)oc2cc(Oc3ccc(C(N)=O)cc3[N+](=O)[O-])ccc12,"inconclusive: 35.5 µM [inhibitor, partial curve]",
Cn1cc(C=O)c2cc(F)ccc21,,inactive: 2.03%
O=C(CSc1nnc(SCc2ccccc2)s1)N/N=C/C=C/c1ccco1,active: 39.8 µM,
O=C(O)c1ccccc1NS(=O)(=O)c1ccc(NNC(=S)Nc2ccc(OC(F)F)cc2)c([N+](=O)[O-])c1,"inconclusive: 17.8 µM [inhibitor, full curve]",
N=C1SCC(=O)N1c1ncc(Cc2cccc(Cl)c2)s1,,inactive: -7.47%
CN1CCN(S(=O)(=O)c2ccc(NC(=O)Cc3ccc([N+](=O)[O-])cc3)cc2)CC1,,inactive: -18.6%

SMILES,Potency,"activity change, negative = inhibition"
Cc1ccc(-c2nc3ccccc3s2)cc1NC(=S)NC(=O)/C=C/c1ccco1,"inconclusive: 50.1 µM [inhibitor, partial curve]",
COc1ccc(C(=O)NC2CC2)cc1OC1CCN(Cc2ccc(F)cc2F)CC1,"inconclusive: 89.1 µM [inhibitor, single point]",
CCOc1ccc(C(=O)Nc2cc(-c3nc4ccccc4[nH]3)ccc2C)cc1[N+](=O)[O-],,inactive: -10.9%
COc1cccc(NC(=S)NC(=O)/C=C/c2ccco2)c1,"inconclusive: 11.2 µM [inhibitor, partial curve]",
O=C1OC(c2ccc3ccccc3c2O)(c2ccc3ccccc3c2O)c2ccccc21,"inconclusive: 79.4 µM [inhibitor, partial curve]",
CC1=C(C(=O)Nc2ccccc2)C2(CCCCC2)C(C#N)=C(S)N1,"inconclusive: 89.1 µM [inhibitor, single point]",
COc1ccccc1NC(=O)Cc1nnc(SCC(=O)Nc2ccccc2F)n1C,"inconclusive: 89.1 µM [inhibitor, single point]",
S=c1[nH]nc(-c2cc(-c3ccccc3)n[nH]2)n1/N=C/c1ccc(Cl)c(Cl)c1,active: 35.5 µM,
O=C(Cn1cnc2scc(-c3cccc([N+](=O)[O-])c3)c2c1=O)NCc1ccco1,"inconclusive: 35.5 µM [inhibitor, partial curve]",
CCN(CC)CCCNC1=C(Cl)C(=O)c2ccccc2C1=O,"inconclusive: 17.8 µM [inhibitor, full curve, poor fit]",
COc1ccc(-c2nn(-c3ccccc3)cc2/C=C2/SC(=S)N(CCC(=O)O)C2=O)cc1,active: 50.1 µM,
Cc1cc(C(=O)NCCCN2CCCC2=O)no1,"inconclusive: 56.2 µM [inhibitor, partial curve, poor fit]",
COc1ccc(-c2cc(C(=O)Nc3ccc(C)c(N)c3)c3ccccc3n2)cc1,"inconclusive: 79.4 µM [inhibitor, single point]",
COCCOC(=O)c1[nH]c2c(c1C)C(=O)CC(c1ccccc1)C2 (stereo not drawn),,inactive: -1.54%
CC1=C/C(=C(\c2cc(C)c(O)c(Br)c2)c2ccccc2S(=O)(=O)O)C=C(Br)C1=O,"inconclusive: 39.8 µM [inhibitor, full curve, poor fit]",
Cc1ccc(SCC(=O)NC(=O)NCc2ccco2)c(C)c1,"inconclusive: 35.5 µM [inhibitor, partial curve]",
Cc1nc(C)c(C(=O)Nc2ncc([N+](=O)[O-])s2)o1,"inconclusive: 79.4 µM [inhibitor, partial curve]",
COc1ccccc1-c1sc2cc3c(cc2c1-c1ccc(OCCN2CCCCC2)cc1)OCO3,,inactive: -0.0112%
O=[N+]([O-])c1ccc(Nc2ccccc2)c2nonc12,,inactive: -11.6%
COc1ccc(NC(=O)/C(C#N)=C/c2ccc(Br)o2)cc1,"inconclusive: 56.2 µM [inhibitor, partial curve]",
CCCCCCCCN1C(=O)[C@H](CC(=O)NCCCC)C[C@@]2(C(=O)OC)CC(C)(C)CC=C12,,inactive: -8.42%
CC1=C/C(=C(/c2cc(C)c(O)c(Br)c2)c2ccccc2S(=O)(=O)O)C=C(Br)C1=O,"inconclusive: 25.1 µM [inhibitor, single point]",

# 20 structures from above, sorted by molar mass, smallest number first.
SMILES,Potency,"activity change, negative = inhibition"
Cc1cc(C(=O)NCCCN2CCCC2=O)no1,"inconclusive: 56.2 µM [inhibitor, partial curve, poor fit]",
O=[N+]([O-])c1ccc(Nc2ccccc2)c2nonc12,,inactive: -11.6%
Cc1nc(C)c(C(=O)Nc2ncc([N+](=O)[O-])s2)o1,"inconclusive: 79.4 µM [inhibitor, partial curve]",
COc1cccc(NC(=S)NC(=O)/C=C/c2ccco2)c1,"inconclusive: 11.2 µM [inhibitor, partial curve]",
Cc1ccc(SCC(=O)NC(=O)NCc2ccco2)c(C)c1,"inconclusive: 35.5 µM [inhibitor, partial curve]",
CCN(CC)CCCNC1=C(Cl)C(=O)c2ccccc2C1=O,"inconclusive: 17.8 µM [inhibitor, full curve, poor fit]",
COCCOC(=O)c1[nH]c2c(c1C)C(=O)CC(c1ccccc1)C2 (stereo not drawn),,inactive: -1.54%
CC1=C(C(=O)Nc2ccccc2)C2(CCCCC2)C(C#N)=C(S)N1,"inconclusive: 89.1 µM [inhibitor, single point]",
COc1ccc(NC(=O)/C(C#N)=C/c2ccc(Br)o2)cc1,"inconclusive: 56.2 µM [inhibitor, partial curve]",
COc1ccc(-c2cc(C(=O)Nc3ccc(C)c(N)c3)c3ccccc3n2)cc1,"inconclusive: 79.4 µM [inhibitor, single point]",
O=C(Cn1cnc2scc(-c3cccc([N+](=O)[O-])c3)c2c1=O)NCc1ccco1,"inconclusive: 35.5 µM [inhibitor, partial curve]",
S=c1[nH]nc(-c2cc(-c3ccccc3)n[nH]2)n1/N=C/c1ccc(Cl)c(Cl)c1,active: 35.5 µM,
COc1ccc(C(=O)NC2CC2)cc1OC1CCN(Cc2ccc(F)cc2F)CC1,"inconclusive: 89.1 µM [inhibitor, single point]",
CN1CCN(S(=O)(=O)c2ccc(NC(=O)Cc3ccc([N+](=O)[O-])cc3)cc2)CC1,,inactive: -18.6%
Cc1ccc(-c2nc3ccccc3s2)cc1NC(=S)NC(=O)/C=C/c1ccco1,"inconclusive: 50.1 µM [inhibitor, partial curve]",
COc1ccccc1NC(=O)Cc1nnc(SCC(=O)Nc2ccccc2F)n1C,"inconclusive: 89.1 µM [inhibitor, single point]",
CCCCCCCCN1C(=O)[C@H](CC(=O)NCCCC)C[C@@]2(C(=O)OC)CC(C)(C)CC=C12,,inactive: -8.42%
COc1ccc(-c2nn(-c3ccccc3)cc2/C=C2/SC(=S)N(CCC(=O)O)C2=O)cc1,active: 50.1 µM,
COc1ccccc1-c1sc2cc3c(cc2c1-c1ccc(OCCN2CCCCC2)cc1)OCO3,,inactive: -0.0112%
CC1=C/C(=C(/c2cc(C)c(O)c(Br)c2)c2ccccc2S(=O)(=O)O)C=C(Br)C1=O,"inconclusive: 25.1 µM [inhibitor, single point]",
